PubChem BioAssay AID504793 | Drosophila RNAi Screening Center – 2011

- Test: 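Genes required for cells to halt at G2/M after double-strand DNA breaks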 (primary screen)
- Cells: Drosophila S2R+ cells
- Reagents: long dsRNA against Drosophila genes, about 0.25 µg dsRNA per well
- Timing: 4 days of dsRNA, then 4 hours of drug before read-out
- Conditions: doxorubicin 0.5 µM for 4 hours to cause double-strand breaks, in cells also given a low, harmless dose of dsRNA against nbs to sensitise the assay
- Read-out: 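Mitotic index as the number of phospho-histone H3-positive cells in each well following doxorubicin, given as raw counts without normalisation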
- Direction: mitotic cells: higher = more cells in mitosis, weaker G2 arrest
- Hit rule: 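Genes are called active only when high mitotic counts were reproduced with independent dsRNAs and mitosis was checked for delay without damage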
- Calls: active = confirmed in follow-up tests; inactive = not confirmed
In all, the deposit lists about 23,000 reagents; this is a random part of those that have a named target and a result. Of all reagents, 62 (0.27%) were called active. 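Calls come from follow-up tests whose scores are not deposited, so confirmed genes may have low counts here; counts are not normalised per plate.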 The raw values are shown without normalisation. The numbers tell different reagents against one gene apart. A plus sign joins genes that one reagent is predicted to hit. Reagent sequences are not shown.

{"Target gene": "smid (GeneID 38824)", "reagent": 1, "mitotic cells, replicate 1": 1, "activity call": "inactive"}
{"Target gene": "smid (GeneID 38824)", "reagent": 2, "mitotic cells, replicate 1": 6, "activity call": "inactive"}
{"Target gene": "CG13460 (GeneID 39638)", "reagent": 1, "mitotic cells, replicate 1": 3, "activity call": "inactive"}
{"Target gene": "Kr-h2 (GeneID 33859)", "reagent": 1, "mitotic cells, replicate 1": 5, "activity call": "inactive"}
{"Target gene": "CG10898 (GeneID 41384)", "reagent": 1, "mitotic cells, replicate 1": 3, "activity call": "inactive"}
{"Target gene": "CG13408 (GeneID 42597)", "reagent": 1, "mitotic cells, replicate 1": 23, "activity call": "inactive"}
{"Target gene": "CG13408 (GeneID 42597)", "reagent": 2, "mitotic cells, replicate 1": 7, "activity call": "inactive"}
{"Target gene": "ND-49 (GeneID 43798)", "reagent": 1, "mitotic cells, replicate 1": 17, "activity call": "inactive"}
{"Target gene": "CG13796 + CG31904", "reagent": 1, "mitotic cells, replicate 1": 10, "activity call": "inactive"}
{"Target gene": "nec (GeneID 45908)", "reagent": 1, "mitotic cells, replicate 1": 2, "activity call": "inactive"}
{"Target gene": "sls (GeneID 44013)", "reagent": 1, "mitotic cells, replicate 1": 4, "activity call": "inactive"}
{"Target gene": "sls (GeneID 44013)", "reagent": 2, "mitotic cells, replicate 1": 3, "activity call": "inactive"}
{"Target gene": "sls (GeneID 44013)", "reagent": 3, "mitotic cells, replicate 1": 6, "activity call": "inactive"}
{"Target gene": "CG13622 (GeneID 42923)", "reagent": 1, "mitotic cells, replicate 1": 14, "activity call": "inactive"}
{"Target gene": "CG13622 (GeneID 42923)", "reagent": 2, "mitotic cells, replicate 1": 2, "activity call": "inactive"}
{"Target gene": "defl (GeneID 39141)", "reagent": 1, "mitotic cells, replicate 1": 8, "activity call": "inactive"}
{"Target gene": "Pde8 (GeneID 37741)", "reagent": 1, "mitotic cells, replicate 1": 7, "activity call": "inactive"}
{"Target gene": "Pde8 (GeneID 37741)", "reagent": 2, "mitotic cells, replicate 1": 7, "activity call": "inactive"}
{"Target gene": "p (GeneID 41025)", "reagent": 1, "mitotic cells, replicate 1": 4, "activity call": "inactive"}
{"Target gene": "p (GeneID 41025)", "reagent": 2, "mitotic cells, replicate 1": 1, "activity call": "inactive"}
{"Target gene": "CG9514 (GeneID 32418)", "reagent": 1, "mitotic cells, replicate 1": 15, "activity call": "inactive"}
{"Target gene": "CG9514 (GeneID 32418)", "reagent": 2, "mitotic cells, replicate 1": 6, "activity call": "inactive"}
{"Target gene": "CG9514 (GeneID 32418)", "reagent": 3, "mitotic cells, replicate 1": 9, "activity call": "inactive"}
{"Target gene": "stx (GeneID 32005)", "reagent": 1, "mitotic cells, replicate 1": 16, "activity call": "inactive"}
{"Target gene": "stx (GeneID 32005)", "reagent": 2, "mitotic cells, replicate 1": 2, "activity call": "inactive"}
{"Target gene": "Grip128 (GeneID 32478)", "reagent": 1, "mitotic cells, replicate 1": 18, "activity call": "inactive"}
{"Target gene": "Pi3K21B (GeneID 33203)", "reagent": 1, "mitotic cells, replicate 1": 6, "activity call": "inactive"}
{"Target gene": "CG16998 (GeneID 38847)", "reagent": 1, "mitotic cells, replicate 1": 4, "activity call": "inactive"}
{"Target gene": "Anp (GeneID 43595)", "reagent": 1, "mitotic cells, replicate 1": 17, "activity call": "inactive"}
{"Target gene": "CtIP (GeneID 40262)", "reagent": 1, "mitotic cells, replicate 1": 6, "activity call": "inactive"}
{"Target gene": "CtIP (GeneID 40262)", "reagent": 2, "mitotic cells, replicate 1": 4, "activity call": "inactive"}
{"Target gene": "Myd88 (GeneID 35956)", "reagent": 1, "mitotic cells, replicate 1": 6, "activity call": "inactive"}
{"Target gene": "Myd88 (GeneID 35956)", "reagent": 2, "mitotic cells, replicate 1": 3, "activity call": "inactive"}
{"Target gene": "Spt3 (GeneID 41461)", "reagent": 1, "mitotic cells, replicate 1": 11, "activity call": "inactive"}
{"Target gene": "Spt3 (GeneID 41461)", "reagent": 2, "mitotic cells, replicate 1": 3, "activity call": "inactive"}

Part of the list above, set out differently.
Target gene,reagent,"mitotic cells, replicate 1",activity call
CG9514 (GeneID 32418),3,9,inactive
stx (GeneID 32005),1,16,inactive
stx (GeneID 32005),2,2,inactive
Grip128 (GeneID 32478),1,18,inactive
